Measurements: PubChem BioAssay AID601 (SRMLSC, 2007)
The list shows a part of the results.

Assay: MRP1 drug-resistance reversers in H69AR cells – cell-based, doxorubicin co-treatment, pilot screen (AID 601)
Conditions: H69AR cells + 2 uM doxorubicin, CellTiter-Glo, 72 h; measured here: viability with 2 uM doxorubicin; at 10 µM; stronger effect = lower value

SMILES	viability
Fc1ccccc1NC1CCN(Cc2ccccc2)CC1	78.9%
